PubChem BioAssay AID743121, NCATS – 2013
Test: 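Partners whose loss is lethal together with topoisomerase I blockade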 (primary screen). Cells: MDA-MB-231 cells, a human breast cancer line. Reagent: single siRNA against human genes, 20 nM siRNA (0.8 pmol per well). Time to read-out: 120 h (drug added 48 h after transfection, read 72 h later). Conditions: camptothecin 20 nM (about EC30) for 72 h; vehicle 0.1% DMSO in parallel plates. Detection: 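Cell viability by ATP luminescence (CellTiter-Glo) as % of non-targeting siRNA wells, and the log2 ratio of viability without drug over viability with camptothecin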. Direction: log2 vehicle/camptothecin viability: higher = stronger sensitisation to camptothecin. Active means: 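Each gene scored by redundant siRNA activity (RSA) over its individual siRNA ratios; a gene is called active at p < 0.001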.
Here is a random part of about 26,000 deposited reagents. 167 of all reagents (0.63%) were called active. 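Calls are per gene from RSA p-values that are not deposited; an individual active-marked siRNA can sensitise only weakly.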 Unmarked entries are inactive. The numbers tell different reagents against one gene apart. Not all columns of the deposit are shown.

| gene | reagent no. | log2 vehicle/camptothecin viability |
| --- | --- | --- |
| CSNK1G3 (GeneID 1456) | 1 | -0.802 |
| CSNK1G3 (GeneID 1456) | 2 | -0.085 |
| CSNK1G3 (GeneID 1456) | 3 | 0.713 |
| CSNK1G3 (GeneID 1456) | 4 | -0.0804 |
| CCND3 (GeneID 896) | 1 | -0.506 |
| CCND3 (GeneID 896) | 2 | -0.662 |
| CCND3 (GeneID 896) | 3 | 0.461 |
| CCND3 (GeneID 896) | 4 | -0.205 |
| SLC7A4 (GeneID 6545) | 1 | -0.145 |
| SLC7A4 (GeneID 6545) | 2 | 0.0369 |
| SLC7A4 (GeneID 6545) | 3 | -0.0566 |
| SLC7A4 (GeneID 6545) | 4 | 0.662 |
| DHODH (GeneID 1723) | 1 | -0.502 |
| DHODH (GeneID 1723) | 2 | -0.304 |
| DHODH (GeneID 1723) | 3 | -0.46 |
| ZDHHC3 (GeneID 51304) | 1 | -0.114 |
| ZDHHC3 (GeneID 51304) | 2 | -0.265 |
| ZDHHC3 (GeneID 51304) | 3 | -0.096 |
| ZDHHC3 (GeneID 51304) | 4 | -0.205 |
| SCN2B (GeneID 6327) | 1 | -0.252 |
| SCN2B (GeneID 6327) | 2 | 0.114 |
| SCN2B (GeneID 6327) | 3 | -0.295 |
| SCN2B (GeneID 6327) | 4 | -0.0403 |
| PCDH15 (GeneID 65217) | 1 | 0.114 |
| PCDH15 (GeneID 65217) | 2 | -0.274 |
| PCDH15 (GeneID 65217) | 3 | 0.75 |
| PCDH15 (GeneID 65217) | 4 | -0.256 |
| PDGFRA (GeneID 5156) | 1 | -0.0967 |
| PDGFRA (GeneID 5156) | 2 | -0.389 |
| PDGFRA (GeneID 5156) | 3 | -0.345 |
| PDGFRA (GeneID 5156) | 4 | -0.388 |
| SNRPD1 (GeneID 6632) | 1 | -0.117 |
| SNRPD1 (GeneID 6632) | 2 | -0.0749 |
| SNRPD1 (GeneID 6632) | 3 | -0.664 |
| HSDL2 (GeneID 84263) | 1 | 0.0268 |
| HSDL2 (GeneID 84263) | 2 | -0.295 |
| HSDL2 (GeneID 84263) | 3 | -0.184 |
| HSDL2 (GeneID 84263) | 4 | -0.431 |
| PLIN3 (GeneID 10226) | 1 | -0.247 |
| PLIN3 (GeneID 10226) | 2 | -0.449 |
| PLIN3 (GeneID 10226) | 3 | -0.225 |
| PLIN3 (GeneID 10226) | 4 | -0.658 |
| SLC24A5 (GeneID 283652) | 1 | 0.0115 |
| SLC24A5 (GeneID 283652) | 2 | -0.111 |
| SLC24A5 (GeneID 283652) | 3 | 0.256 |
| SLC24A5 (GeneID 283652) | 4 | 0.151 |
| GYPC (GeneID 2995) | 1 | -0.316 |
| GYPC (GeneID 2995) | 2 | -0.253 |
| GYPC (GeneID 2995) | 3 | -0.0839 |
| CD82 (GeneID 3732) | 1 | -0.107 |
| CD82 (GeneID 3732) | 2 | -0.297 |
| CD82 (GeneID 3732) | 3 | 0.941 |
| TIA1 (GeneID 7072) | 1 | 0.167 |
| TIA1 (GeneID 7072) | 2 | -0.0885 |
| TIA1 (GeneID 7072) | 3 | -0.542 |
| USP10 (GeneID 9100) | 1 | -0.438 |
| USP10 (GeneID 9100) | 2 | -0.482 |
| USP10 (GeneID 9100) | 3 | -0.261 |
| KCNMB2 (GeneID 10242) | 1 | -0.0785 |
| KCNMB2 (GeneID 10242) | 2 | 0.18 |
| KCNMB2 (GeneID 10242) | 3 | -0.156 |
| KCNMB2 (GeneID 10242) | 4 | -0.385 |
| CFB (GeneID 629) | 1 | -0.0731 |
| CFB (GeneID 629) | 2 | 0.362 |
| CFB (GeneID 629) | 3 | -0.21 |
| CFB (GeneID 629) | 4 | 0.038 |
| PSENEN (GeneID 55851) | 1 | 0.109 |
| PSENEN (GeneID 55851) | 2 | -0.0751 |
| PSENEN (GeneID 55851) | 3 | -0.281 |

Laid out differently: results already given
PSENEN (GeneID 55851) #1 | log2 vehicle/camptothecin viability = 0.109
PSENEN (GeneID 55851) #2 | log2 vehicle/camptothecin viability = -0.0751
PSENEN (GeneID 55851) #3 | log2 vehicle/camptothecin viability = -0.281
